Source: PubChem BioAssay AID186 (DTP/NCI, 2004)
Shown are survivors of the treated group in tumour-free mice. Counts of survivors are from the toxicity check (mostly the fifth day) where no day follows; animals may have died later. Schedules are NCI's codes, read here as Q, the interval in days (D) or hours (H), X, the number of doses.

Tested on: B6D2F1 mice, nontumored toxicity test, survival
Assay: NCI In Vivo Anticancer Drug Screen. Data for tumor model Nontumored Animals (Toxicity Test) in B6D2F1 (BDF1) mice

`CCO` was tested, and the survivor count (dose: 2.0 grams/kg/injection, schedule: Q01DX001 (ip), vehicle: water) was 10 of 10, the survivor count (dose: 3.0 grams/kg/injection, schedule: Q01DX001 (ip), vehicle: water) was 10 of 10 and the survivor count (dose: 4.0 grams/kg/injection, schedule: Q01DX001 (ip), vehicle: water) was 10 of 10. For the same molecule, the survivor count (dose: 5.0 grams/kg/injection, schedule: Q01DX001 (ip), vehicle: water) was 10 of 10, the survivor count (dose: 6.0 grams/kg/injection, schedule: Q01DX001 (ip), vehicle: water) was 9 of 10 and the survivor count (dose: 8.0 grams/kg/injection, schedule: Q01DX001 (ip), vehicle: water) was 0 of 10.

With `O=C[C@@H](CO)O[C@H](C=O)c1c[nH]c(=O)[nH]c1=O` the survivor count (dose: 20.0 mg/kg/injection, schedule: Q01DX009 (ip), vehicle: saline) was 10 of 10, the survivor count (dose: 25.0 mg/kg/injection, schedule: Q01DX009 (ip), vehicle: saline) was 10 of 10 and the survivor count (dose: 30.0 mg/kg/injection, schedule: Q01DX009 (ip), vehicle: saline) was 10 of 10. The survivor count (dose: 35.0 mg/kg/injection, schedule: Q01DX009 (ip), vehicle: saline) was 10 of 10, the survivor count (dose: 40.0 mg/kg/injection, schedule: Q01DX009 (ip), vehicle: saline) was 10 of 10 and the survivor count (dose: 80.0 mg/kg/injection, schedule: Q04DX003 (ip), vehicle: saline) was 10 of 10. For the same molecule, the survivor count (dose: 100.0 mg/kg/injection, schedule: Q04DX003 (ip), vehicle: saline) was 10 of 10, the survivor count (dose: 120.0 mg/kg/injection, schedule: Q04DX003 (ip), vehicle: saline) was 9 of 9 and the survivor count (dose: 140.0 mg/kg/injection, schedule: Q04DX003 (ip), vehicle: saline) was 10 of 10.
